The source of these data is article PMC10546721.

Chains of the proteins cited; added tags and fusions are not shown. Residues count along the entry.
UniProt O00206, residues 24-839: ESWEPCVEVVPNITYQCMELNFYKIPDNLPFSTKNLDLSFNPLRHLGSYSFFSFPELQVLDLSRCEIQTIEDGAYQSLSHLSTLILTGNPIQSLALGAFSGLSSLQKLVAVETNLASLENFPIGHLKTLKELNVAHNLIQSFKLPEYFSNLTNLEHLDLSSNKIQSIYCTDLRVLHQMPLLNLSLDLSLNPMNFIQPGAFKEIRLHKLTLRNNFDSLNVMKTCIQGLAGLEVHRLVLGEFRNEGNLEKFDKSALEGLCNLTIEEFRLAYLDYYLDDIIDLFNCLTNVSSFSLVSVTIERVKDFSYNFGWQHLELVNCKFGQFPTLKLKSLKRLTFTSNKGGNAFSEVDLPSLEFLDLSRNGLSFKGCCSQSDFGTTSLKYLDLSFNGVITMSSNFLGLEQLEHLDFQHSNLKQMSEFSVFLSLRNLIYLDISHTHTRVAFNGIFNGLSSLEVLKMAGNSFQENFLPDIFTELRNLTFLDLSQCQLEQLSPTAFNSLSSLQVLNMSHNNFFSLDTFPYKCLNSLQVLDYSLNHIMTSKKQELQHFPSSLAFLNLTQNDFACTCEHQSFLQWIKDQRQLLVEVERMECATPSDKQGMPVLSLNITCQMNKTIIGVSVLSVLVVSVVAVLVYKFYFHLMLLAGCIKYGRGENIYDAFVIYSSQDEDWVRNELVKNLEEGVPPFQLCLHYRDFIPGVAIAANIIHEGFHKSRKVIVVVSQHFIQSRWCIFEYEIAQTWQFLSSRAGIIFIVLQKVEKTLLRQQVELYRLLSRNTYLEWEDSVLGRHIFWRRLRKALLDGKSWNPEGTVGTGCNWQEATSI

Results are given in words; binding and its absence hold for the method and conditions named. Binding seen in cells or lysates may run through a third protein. Some entries that bind do so weakly or less than the wild type. Where a sequence is shown, tags or fusion partners need not be part of it.

This assay concerns the target T1, lipopolysaccharide binding protein (LBP) fused with 3X-FLAG (human) (UniProt P18428).
T1 sequence: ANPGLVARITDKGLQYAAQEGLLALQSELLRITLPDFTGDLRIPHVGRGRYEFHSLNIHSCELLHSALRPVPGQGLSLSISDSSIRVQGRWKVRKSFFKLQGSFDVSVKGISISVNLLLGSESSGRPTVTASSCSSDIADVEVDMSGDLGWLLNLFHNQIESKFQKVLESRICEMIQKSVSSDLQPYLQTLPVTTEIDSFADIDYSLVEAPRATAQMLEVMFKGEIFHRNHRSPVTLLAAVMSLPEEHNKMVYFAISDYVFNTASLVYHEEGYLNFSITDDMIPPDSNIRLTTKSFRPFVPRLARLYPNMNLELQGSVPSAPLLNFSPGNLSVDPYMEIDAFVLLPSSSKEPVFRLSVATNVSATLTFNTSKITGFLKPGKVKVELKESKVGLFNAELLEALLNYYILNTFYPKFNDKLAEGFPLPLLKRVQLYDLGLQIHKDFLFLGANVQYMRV
The assay is described as follows: co-IP; simultaneous overexpression of LBP and TLR4 in PMA-THP-1 cells; immunoblot; bait and antibodies not given.

Consider “TLR4 fused with 3X-Flag (overexpression plasmid) (from UniProt O00206 24-839) (receptor)”, for which the binding entry is “binds”.
